Results are given in words; binding and its absence hold for the method and conditions named. Binding seen in cells or lysates may run through a third protein. Some results given as binding are weak or reduced against the parent protein; the word gives no strength. Tags and fused reporters may be left off the sequences shown.
B1: Flag-tagged Ulk4-EE-KR (Ulk4-EE-KR–Fg), human Ulk4 T1021E/T1023E/K1030R (protein, UniProt Q96C45 1-1275)
chain: MENFILYEEIGRGSKTVVYKGRRKGTINFVAILCTDKCKRPEITNWVRLTREIKHKNIVTFHEWYETSNHLWLVVELCTGGSLKTVIAQDENLPEDVVREFGIDLISGLHHLHKLGILFCDISPRKILLEGPGTLKFSNFCLAKVEGENLEEFFALVAAEEGGGDNGENVLKKSMKSRVKGSPVYTAPEVVRGADFSISSDLWSLGCLLYEMFSGKPPFFSESISELTEKILCEDPLPPIPKDSSRPKASSDFINLLDGLLQRDPQKRLTWTRLLQHSFWKKAFAGADQESSVEDLSLSRNTMECSGPQDSKELLQNSQSRQAKGHKSGQPLGHSFRLENPTEFRPKSTLEGQLNESMFLLSSRPTPRTSTAVEVSPGEDMTHCSPQKTSPLTKITSGHLSQQDLESQMRELIYTDSDLVVTPIIDNPKIMKQPPVKFDAKILHLPTYSVDKLLFLKDQDWNDFLQQVCSQIDSTEKSMGASRAKLNLLCYLCVVAGHQEVATRLLHSPLFQLLIQHLRIAPNWDIRAKVAHVIGLLASHTAELQENTPVVEAIVLLTELIRENFRNSKLKQCLLPTLGELIYLVATQEEKKKNPRECWAVPLAAYTVLMRCLREGEERVVNHMAAKIIENVCTTFSAQSQGFITGEIGPILWYLFRHSTADSLRITAVSALCRITRHSPTAFQNVIEKVGLNSVINSLASAICKVQQYMLTLFAAMLSCGIHLQRLIQEKGFVSTIIRLLDSPSTCIRAKAFLVLLYILIYNREMLLLSCQARLVMYIERDSRKTTPGKEQQSGNEYLSKCLDLLICHIVQELPRILGDILNSLANVSGRKHPSTVQVKQLKLCLPLMPVVLHLVTSQVFRPQVVTEEFLFSYGTILSHIKSVDSGETNIDGAIGLTASEEFIKITLSAFEAIIQYPILLKDYRSTVVDYILPPLVSLVQSQNVEWRLFSLRLLSETTSLLVNQEFGDGKEKASVDSDSNLLALIRDVLLPQYEHILLEPDPVPAYALKLLVAMTEHNPEFERLVEESRLIPLIFEVTLEHQESILGNTMQSVIALLSNLVACKDSNMELLYEQGLVSHICNLLTETATLCLDVDNKNNNEMAAPLLFSLLDILHSMLTYTSGIVRLALQAQKSGSGEDPQAAEDLLLLNRPLTDLISLLIPLLPNEDPEIFDVSSKCLSILVQLYGGENPDSLSPENVEIFAHLLTSKEDPKEQKLLLRILRRMITSNEKHLESLKNAGSLLRALERLAPGSGSFADSAVAPLALEILQAVGH
B2: C-terminal fragment of Ulk4-EE from amino acids 1004–1275, Flag-tagged (C272-EE–Fg) (domain or fragment, UniProt Q96C45 1004-1275)
chain: VPAYALKLLVAMTEHNPEFERLVEESKLIPLIFEVTLEHQESILGNTMQSVIALLSNLVACKDSNMELLYEQGLVSHICNLLTETATLCLDVDNKNNNEMAAPLLFSLLDILHSMLTYTSGIVRLALQAQKSGSGEDPQAAEDLLLLNRPLTDLISLLIPLLPNEDPEIFDVSSKCLSILVQLYGGENPDSLSPENVEIFAHLLTSKEDPKEQKLLLRILRRMITSNEKHLESLKNAGSLLRALERLAPGSGSFADSAVAPLALEILQAVGH

Target: C-terminally HA-tagged wild type human Ulk4 (Ulk4-WT–HA) (human) (UniProt Q96C45)
Assay: co-IP; HEK293T cells transfected with Fg-tagged and HA-tagged Ulk4 constructs, immunoprecipitation and western blot with the indicated antibodies (which tag was precipitated is not given)

| Binder | binding |
| --- | --- |
| B1 | binds |
| B2 | binds |
